Results on 20 compounds are retold here after patent publication US5441563A, “Highly insoluble azole embossing inhibitor and the use thereof” (Armstrong World Industries, Inc., priority 1994, dated 1995).

Data set [1] is described as follows: Ghosting (in-roll migration of inhibitor), accelerated bench top test (Table II). Also noted: key: None; SL: Slight; Severe (after 3 days). Particulars: after 3 days; 120 °F, 1.4 psi.
Test in data set [2]: as above
On the set-up: key: 1: Excellent; 2: Very Good; 3: Good; 4: Fair; 5: Poor; None. Particulars: after 3 days; 120 °F, 1.4 psi.

Data set [3] can be described thus: Embossing definition over time. Conditions: printed sheets from the ghosting test.
Data set [4] in a line: Depth of chemical embossing of printed foamable plastisol (Table I). Conditions: 9 mil plastisol, 201 °C, 1.3 min.
[5] abbreviates: cationic ink from cationic dispersion (inks of Examples 5, 9, 11; 11.54% TTA-P, 12.03% BTA-P, 12.10% HTTA-P).

In the case of “1Bis(2-ethylhexyl)aminomethyltolyltriazole [TTA-EH, reference compound]”, the Ghosting entry in data set [1] is “S”.
On to “1Bis(hydroxyethyl)aminomethyltotyltriazole [TTA-HE, reference compound]”, for which the Ghosting entry in data set [1] is “S”.
The same measure, in the same setting: to `c1ccc2[nH]cnc2c1` [BI, Benzimidazole] belongs “S”.
For `c1ccc2c(c1)ncn2CN1CCN(Cn2cnc3ccccc32)CC1` [BI-P, N,N'-Bis(Benzimidazol-1-yl Methyl) Piperazine], the Ghosting result in data set [2] is listed as “N”.
With `c1ccc2[nH]nnc2c1` [BTA, Benzotriazole, reference compound], the “Embossing definition over time” value in data set [3] was “poor embossing definition over time”. Also, the Ghosting result in data set [1] was “S”.
`O=C(O)c1ccc(S(=O)(=O)NCn2nnc3ccccc32)cc1` [BTA-4CBSA, N-(Benzotriazol-1-yl Methyl)-4'-Carboxybenzene Sulfonamide]: the Ghosting entry in data set [1] is “SL”.
As to `c1ccc2c(c1)nnn2CNCn1nnc2ccccc21` [BTA-A, bis(benzotriazol-1-ylmethyl) amine], in data set [1], the Ghosting entry is “S”.
`O=S(=O)(NCn1nnc2ccccc21)c1cccc(S(=O)(=O)NCn2nnc3ccccc32)c1` [BTA-BDSA, 1(1',3'-benzenedisulfonamido)methyl benzotriazole]: the Ghosting result in data set [2] was “N”.
As for `O=S(=O)(NCn1nnc2ccccc21)c1ccccc1` [BTA-BSA, 1-(1'-benzenesulfonamido) methyl benzotriazole], in data set [1], the Ghosting result was “S”.
Still for that read-out and setting: to `CN(Cn1nnc2ccccc21)C(=O)N(C)Cn1nnc2ccccc21` [BTA-DMU, 1,3-Bis(benzotriazol-1'-ylmethyl) N,N'-dimethyl urea] belongs “SL”; to `O=C(O)CN(Cn1nnc2ccccc21)Cn1nnc2ccccc21` [BTA-G, N,N-bis(benzotriazol-1-ylmethyl) glycine], “S”.
As for `O=C(NN(Cn1nnc2ccccc21)Cn1nnc2ccccc21)c1ccccc1` [BTA-HYR, 1-Bis(Benzotriazol-1'-yl Methyl)-2-Benzoyl Hydrazide], the Ghosting entry in data set [2] is given as “N”.
The same measure, in the same setting: to `O=S(=O)(NCn1nnc2ccccc21)c1cccc2c(S(=O)(=O)NCn3nnc4ccccc43)cccc12` [BTA-NDSA, 1(1',5'-naphthalenedisulfonamido) methyl benzotriazole] belongs “N”.
In the case of `ON(Cn1nnc2ccccc21)Cn1nnc2ccccc21` [BTA-NOH, N,N-bis (benzotriazol-1-yl methyl) hydroxylamine], the Ghosting entry in data set [1] is on record as “S”.
As for `c1ccc2c(c1)nnn2CN1CCN(Cn2nnc3ccccc32)CC1` [BTA-P, N,N'-bis(benzotriazol-1-ylmethyl) piperazine], the “Chemical Embossing Depth” value in data set [4] (setting [5]) is 7.5 mils. In addition, the Ghosting result in data set [2] is reported as “N”.
With `S=C(NCn1nnc2ccccc21)NCn1nnc2ccccc21` [BTA-TU, 1,3-bis(benzotriazol-1-ylmethyl) thiourea], the Ghosting entry in data set [2] is given as “N”.
The same measure, in the same setting: the value for `O=C(NCn1nnc2ccccc21)NCn1nnc2ccccc21` [BTA-U, 1,3-bis(benzotriazol-1'-ylmethyl) urea] was “N”.
For “N,N'-Bis(Methylcyclohexyltriazol-1-yl Methyl) Piperazine [HTTA-P]”, the “Chemical Embossing Depth” value in data set [4] (setting [5]) stood at 8.5 mils. Also, the Ghosting entry in data set [2] is recorded as “N”.
Regarding “N,N'-bis(tolyltriazol-1-yl methyl) piperazine [TTA-P]”, the “Chemical Embossing Depth” value in data set [4] (anionic ink from anionic dispersion (Example 7), 11.24% TTA-P) is reported as 9.1 mils; in data set [4] (anionic ink, direct addition (Example 13), 12.93% TTA-P), 10.8 mils; in data set [4] (setting [5]) it was 10.0 mils; in data set [4] (cationic ink, direct addition (Example 12), 12.93% TTA-P), 10.6 mils. Besides, the Ghosting result in data set [2] is “N”.
Take Tolyltriazole [TTA, reference compound]: the “Embossing definition over time” value in data set [3] is recorded as “poor embossing definition over time”. In addition, in data set [1], the Ghosting result is given as “S”.
